Experimental data: the supplement of paper PMC10849652
The list shows a part of the results. Residues, ends and D or L forms follow the SMILES beside them. *: point of attachment. Cbz = O=C(OCc1ccccc1)*

Protein sequences, listed by entry. Tags and fused reporters are not part of them. Lines headed by an entry give the natural chain unless they say otherwise; changes in a name come on top.
UniProt Q86X52: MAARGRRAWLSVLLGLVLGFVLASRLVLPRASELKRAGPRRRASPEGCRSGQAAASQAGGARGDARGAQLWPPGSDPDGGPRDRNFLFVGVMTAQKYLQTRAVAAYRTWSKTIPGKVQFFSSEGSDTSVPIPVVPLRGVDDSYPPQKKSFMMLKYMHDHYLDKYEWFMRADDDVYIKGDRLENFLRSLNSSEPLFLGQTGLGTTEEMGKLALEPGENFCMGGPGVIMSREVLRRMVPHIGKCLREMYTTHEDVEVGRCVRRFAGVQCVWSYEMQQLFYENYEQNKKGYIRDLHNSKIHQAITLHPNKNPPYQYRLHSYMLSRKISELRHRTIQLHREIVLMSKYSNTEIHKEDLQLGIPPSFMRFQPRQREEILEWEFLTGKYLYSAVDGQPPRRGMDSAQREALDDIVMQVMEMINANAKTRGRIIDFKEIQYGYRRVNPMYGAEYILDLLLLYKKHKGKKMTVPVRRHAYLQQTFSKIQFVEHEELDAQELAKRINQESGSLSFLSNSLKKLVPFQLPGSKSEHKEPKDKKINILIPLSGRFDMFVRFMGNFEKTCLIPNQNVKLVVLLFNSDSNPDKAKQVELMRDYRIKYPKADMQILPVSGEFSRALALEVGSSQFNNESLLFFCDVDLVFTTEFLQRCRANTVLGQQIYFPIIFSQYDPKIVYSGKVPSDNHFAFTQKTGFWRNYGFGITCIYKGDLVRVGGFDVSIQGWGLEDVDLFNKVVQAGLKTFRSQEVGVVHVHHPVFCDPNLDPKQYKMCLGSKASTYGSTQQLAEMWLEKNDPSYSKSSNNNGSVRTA
UniProt Q8WTW3: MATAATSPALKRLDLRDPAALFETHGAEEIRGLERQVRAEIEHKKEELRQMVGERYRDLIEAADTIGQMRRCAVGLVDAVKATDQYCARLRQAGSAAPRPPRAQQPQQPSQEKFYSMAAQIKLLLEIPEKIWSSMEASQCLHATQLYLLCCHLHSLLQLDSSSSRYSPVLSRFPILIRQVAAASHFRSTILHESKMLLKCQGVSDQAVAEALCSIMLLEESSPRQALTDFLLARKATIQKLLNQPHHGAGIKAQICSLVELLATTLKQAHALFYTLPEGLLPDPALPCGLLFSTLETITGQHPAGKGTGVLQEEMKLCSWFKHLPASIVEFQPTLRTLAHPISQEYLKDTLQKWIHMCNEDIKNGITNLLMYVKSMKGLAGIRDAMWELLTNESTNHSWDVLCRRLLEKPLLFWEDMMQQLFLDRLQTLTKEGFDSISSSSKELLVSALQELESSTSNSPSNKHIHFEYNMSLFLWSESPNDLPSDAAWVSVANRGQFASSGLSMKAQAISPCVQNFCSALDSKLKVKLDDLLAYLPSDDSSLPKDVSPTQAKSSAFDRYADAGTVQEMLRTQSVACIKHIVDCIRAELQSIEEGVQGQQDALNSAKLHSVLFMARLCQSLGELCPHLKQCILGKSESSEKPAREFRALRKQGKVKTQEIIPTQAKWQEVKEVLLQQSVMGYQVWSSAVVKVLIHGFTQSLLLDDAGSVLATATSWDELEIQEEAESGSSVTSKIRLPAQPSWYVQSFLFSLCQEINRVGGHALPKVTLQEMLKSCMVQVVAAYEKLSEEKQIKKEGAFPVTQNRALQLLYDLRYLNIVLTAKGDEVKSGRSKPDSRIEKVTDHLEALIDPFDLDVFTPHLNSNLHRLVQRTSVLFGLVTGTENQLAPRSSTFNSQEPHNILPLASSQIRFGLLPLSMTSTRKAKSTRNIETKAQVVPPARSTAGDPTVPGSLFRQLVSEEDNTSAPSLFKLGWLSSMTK
UniProt Q99715: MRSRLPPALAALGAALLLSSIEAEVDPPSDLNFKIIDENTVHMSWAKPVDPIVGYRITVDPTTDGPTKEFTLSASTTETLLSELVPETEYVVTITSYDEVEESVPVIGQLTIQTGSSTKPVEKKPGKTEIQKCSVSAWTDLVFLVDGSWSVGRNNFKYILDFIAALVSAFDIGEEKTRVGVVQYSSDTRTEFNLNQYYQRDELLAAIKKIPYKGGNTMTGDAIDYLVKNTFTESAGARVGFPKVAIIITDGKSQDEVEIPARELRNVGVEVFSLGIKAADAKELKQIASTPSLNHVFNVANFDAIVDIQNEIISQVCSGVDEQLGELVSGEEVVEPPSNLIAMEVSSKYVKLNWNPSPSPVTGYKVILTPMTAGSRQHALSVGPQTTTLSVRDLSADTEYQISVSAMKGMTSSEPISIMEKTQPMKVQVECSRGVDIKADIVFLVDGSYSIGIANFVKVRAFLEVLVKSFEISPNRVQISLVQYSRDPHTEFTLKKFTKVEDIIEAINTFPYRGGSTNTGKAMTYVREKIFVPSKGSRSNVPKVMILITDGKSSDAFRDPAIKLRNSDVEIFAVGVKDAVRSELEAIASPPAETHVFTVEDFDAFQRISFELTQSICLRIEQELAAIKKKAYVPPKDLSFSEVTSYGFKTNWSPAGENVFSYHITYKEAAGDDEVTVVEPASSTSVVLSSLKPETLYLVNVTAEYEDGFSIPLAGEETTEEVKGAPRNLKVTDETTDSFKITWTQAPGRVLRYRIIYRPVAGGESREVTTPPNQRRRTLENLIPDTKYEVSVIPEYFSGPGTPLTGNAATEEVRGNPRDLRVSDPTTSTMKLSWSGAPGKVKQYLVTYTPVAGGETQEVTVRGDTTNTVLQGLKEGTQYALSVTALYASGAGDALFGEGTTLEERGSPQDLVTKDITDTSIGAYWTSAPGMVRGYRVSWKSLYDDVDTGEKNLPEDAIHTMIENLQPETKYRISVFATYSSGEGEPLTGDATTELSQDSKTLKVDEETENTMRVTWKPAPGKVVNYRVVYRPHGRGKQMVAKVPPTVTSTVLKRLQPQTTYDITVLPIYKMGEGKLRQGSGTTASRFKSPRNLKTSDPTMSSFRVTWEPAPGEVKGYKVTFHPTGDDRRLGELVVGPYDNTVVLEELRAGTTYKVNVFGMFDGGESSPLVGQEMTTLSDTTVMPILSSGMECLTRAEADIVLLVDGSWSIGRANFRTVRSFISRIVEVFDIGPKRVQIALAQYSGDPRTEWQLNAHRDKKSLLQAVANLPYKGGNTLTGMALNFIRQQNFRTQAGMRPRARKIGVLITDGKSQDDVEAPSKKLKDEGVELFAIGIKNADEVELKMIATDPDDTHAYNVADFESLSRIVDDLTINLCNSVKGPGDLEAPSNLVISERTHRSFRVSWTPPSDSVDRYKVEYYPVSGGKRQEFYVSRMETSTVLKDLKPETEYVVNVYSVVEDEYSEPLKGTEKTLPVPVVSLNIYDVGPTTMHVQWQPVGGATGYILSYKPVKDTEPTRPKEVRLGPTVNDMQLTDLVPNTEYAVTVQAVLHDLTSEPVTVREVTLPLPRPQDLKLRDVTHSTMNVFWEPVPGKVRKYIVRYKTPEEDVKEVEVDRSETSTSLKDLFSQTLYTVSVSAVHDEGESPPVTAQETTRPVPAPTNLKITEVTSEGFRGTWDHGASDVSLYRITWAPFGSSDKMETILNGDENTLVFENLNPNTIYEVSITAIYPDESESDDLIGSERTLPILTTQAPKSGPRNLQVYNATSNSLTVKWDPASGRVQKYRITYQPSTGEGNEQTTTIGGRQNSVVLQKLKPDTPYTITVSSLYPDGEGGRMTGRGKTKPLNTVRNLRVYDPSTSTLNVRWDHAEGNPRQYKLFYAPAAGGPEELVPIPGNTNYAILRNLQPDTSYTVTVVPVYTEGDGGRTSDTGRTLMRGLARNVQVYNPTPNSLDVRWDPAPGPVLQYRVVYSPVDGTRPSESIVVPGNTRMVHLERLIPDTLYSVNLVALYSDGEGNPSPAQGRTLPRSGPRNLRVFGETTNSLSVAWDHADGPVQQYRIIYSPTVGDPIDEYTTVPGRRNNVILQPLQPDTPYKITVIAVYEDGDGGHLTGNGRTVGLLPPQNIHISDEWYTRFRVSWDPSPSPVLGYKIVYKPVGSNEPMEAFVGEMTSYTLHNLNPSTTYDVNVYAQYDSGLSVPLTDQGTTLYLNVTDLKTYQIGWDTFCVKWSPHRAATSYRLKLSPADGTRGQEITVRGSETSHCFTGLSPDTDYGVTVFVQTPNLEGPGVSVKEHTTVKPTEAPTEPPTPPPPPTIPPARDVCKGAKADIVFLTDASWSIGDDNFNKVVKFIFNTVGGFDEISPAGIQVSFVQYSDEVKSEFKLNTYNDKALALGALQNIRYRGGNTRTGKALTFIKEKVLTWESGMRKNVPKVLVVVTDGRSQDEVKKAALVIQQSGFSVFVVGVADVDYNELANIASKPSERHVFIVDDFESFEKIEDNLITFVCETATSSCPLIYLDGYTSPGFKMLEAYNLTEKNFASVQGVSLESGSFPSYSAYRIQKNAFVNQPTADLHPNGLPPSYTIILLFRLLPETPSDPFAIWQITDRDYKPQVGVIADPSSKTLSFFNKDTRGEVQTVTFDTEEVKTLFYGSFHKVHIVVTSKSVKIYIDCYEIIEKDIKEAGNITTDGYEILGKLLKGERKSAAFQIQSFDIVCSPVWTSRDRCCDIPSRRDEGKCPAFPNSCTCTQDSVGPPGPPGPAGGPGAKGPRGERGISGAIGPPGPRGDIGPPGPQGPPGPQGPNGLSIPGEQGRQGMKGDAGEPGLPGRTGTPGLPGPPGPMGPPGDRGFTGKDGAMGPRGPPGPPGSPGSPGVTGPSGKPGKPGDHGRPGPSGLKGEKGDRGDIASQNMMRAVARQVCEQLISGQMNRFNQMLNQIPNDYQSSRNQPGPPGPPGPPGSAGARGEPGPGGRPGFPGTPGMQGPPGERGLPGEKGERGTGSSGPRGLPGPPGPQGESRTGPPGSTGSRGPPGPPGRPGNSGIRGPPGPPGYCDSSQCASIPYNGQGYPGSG
UniProt Q96NY7: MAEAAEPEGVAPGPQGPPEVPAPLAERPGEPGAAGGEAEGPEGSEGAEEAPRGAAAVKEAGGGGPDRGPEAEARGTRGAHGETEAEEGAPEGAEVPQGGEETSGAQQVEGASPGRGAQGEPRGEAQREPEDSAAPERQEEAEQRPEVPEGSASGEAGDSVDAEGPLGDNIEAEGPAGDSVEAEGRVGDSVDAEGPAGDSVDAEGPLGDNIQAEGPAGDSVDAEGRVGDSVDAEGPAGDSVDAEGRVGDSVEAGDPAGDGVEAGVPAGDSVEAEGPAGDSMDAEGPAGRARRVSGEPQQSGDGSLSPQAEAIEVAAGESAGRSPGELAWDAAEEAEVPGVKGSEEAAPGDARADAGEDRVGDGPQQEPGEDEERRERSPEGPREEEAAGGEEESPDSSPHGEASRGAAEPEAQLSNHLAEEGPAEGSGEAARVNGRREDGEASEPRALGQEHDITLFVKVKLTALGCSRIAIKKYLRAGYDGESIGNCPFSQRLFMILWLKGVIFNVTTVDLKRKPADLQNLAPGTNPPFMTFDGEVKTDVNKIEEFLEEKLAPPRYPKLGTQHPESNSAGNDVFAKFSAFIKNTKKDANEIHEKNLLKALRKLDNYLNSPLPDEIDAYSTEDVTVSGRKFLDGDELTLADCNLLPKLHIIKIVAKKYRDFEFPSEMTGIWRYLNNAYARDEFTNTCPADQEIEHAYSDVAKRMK
UniProt Q9Y240: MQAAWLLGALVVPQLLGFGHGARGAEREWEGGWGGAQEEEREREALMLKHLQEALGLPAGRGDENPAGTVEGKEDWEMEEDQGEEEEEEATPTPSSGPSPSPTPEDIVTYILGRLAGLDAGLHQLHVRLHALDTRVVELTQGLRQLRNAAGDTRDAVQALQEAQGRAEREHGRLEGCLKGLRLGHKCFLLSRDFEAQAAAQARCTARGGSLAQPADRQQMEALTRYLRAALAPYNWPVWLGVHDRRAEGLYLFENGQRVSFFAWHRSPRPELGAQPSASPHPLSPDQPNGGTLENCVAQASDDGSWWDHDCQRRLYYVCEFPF
UniProt P51911: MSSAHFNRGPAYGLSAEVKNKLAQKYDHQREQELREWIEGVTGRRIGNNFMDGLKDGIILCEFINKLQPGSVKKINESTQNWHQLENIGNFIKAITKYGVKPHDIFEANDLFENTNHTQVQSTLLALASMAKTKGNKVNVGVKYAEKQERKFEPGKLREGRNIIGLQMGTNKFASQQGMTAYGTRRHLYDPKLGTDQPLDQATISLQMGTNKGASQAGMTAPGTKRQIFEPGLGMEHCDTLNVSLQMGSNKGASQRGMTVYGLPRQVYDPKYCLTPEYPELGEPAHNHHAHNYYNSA
UniProt G5E9Z2: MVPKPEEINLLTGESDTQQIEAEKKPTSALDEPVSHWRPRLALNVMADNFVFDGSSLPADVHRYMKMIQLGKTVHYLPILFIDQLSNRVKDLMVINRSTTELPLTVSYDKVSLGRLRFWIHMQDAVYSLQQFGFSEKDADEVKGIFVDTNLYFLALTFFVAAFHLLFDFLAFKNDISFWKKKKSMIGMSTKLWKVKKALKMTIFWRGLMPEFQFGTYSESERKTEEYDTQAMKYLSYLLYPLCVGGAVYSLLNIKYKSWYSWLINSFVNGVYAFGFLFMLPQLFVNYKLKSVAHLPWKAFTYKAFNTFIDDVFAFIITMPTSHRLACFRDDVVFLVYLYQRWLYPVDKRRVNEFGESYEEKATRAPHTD

How the values were obtained:
Assay in all cases: log2 fold change, soluble protein after heating vs DMSO (PISA); higher = thermal stabilisation; K562 cells, 10 uM, 30 min; active = over 0.2 and 3.5 SD of the protein, either way, in both replicates (recomputed)
[1] = compound: C/C(=N\NC(=O)C1=CC(=CC=C1)S(=O)(=O)N2CCOCC2)/C3=C(C=CC(=C3)Cl)O
Method in brief: (§1)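 K562 cells (2×10^6 cells/mL) were treated with 10 μM compound for 30 min, and aliquots were heated for 3 min over 48°C-58°C. Pooled aliquots were extracted in PBS with 0.5% NP-40 at 4°C, and the supernatant after 21,000xg for 90 min was measured by TMTpro 16plex LC-MS/MS with channel sums equalised. Reported thermal stability, relative to control samples and from duplicates, is a log2 fold change.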

[2] = compound: C1=CC(=C(C=C1Cl)C2=NC3=NC=CN=C3C(=N2)NC4=CC=NC=C4)F
Method in brief: as §1

[3] = compound: C1=CC2=C(C=CC(=C2)/C=C\3/C(=O)NC(=NCC4=CC=CS4)S3)N=C1
Method in brief: as §1

[4] = compound: C1=CC2=NC=CN=C2C=C1/C=C/3\C(=O)NC(=O)S3
Method in brief: as §1

[5] = compound: C1=CC=C(C=C1)C2=NC(=C(N2)C3=CC=NC=C3)C4=CC(=C(C=C4)Cl)O
Method in brief: as §1

[6] = compound: C1=CC=C2C(=C1)C3=NNC4=CC=CC(=C43)C2=O
Method in brief: as §1

[7] = compound: C1CCN(C1)C(=O)NC2=CC=CC(=C2)NC3=NC=C(C(=N3)NCCC4=CN=CN4)Br
Method in brief: as §1

[8] = compound: C1CN(CCC1(CC2=CC=C(C=C2)Cl)N)C3=NC=NC4=C3C=CN4
Method in brief: as §1

[9] = compound: C1COCCN1CCN2C3=CC=CC=C3N=C2NC(=O)C4=CC(=CC=C4)[N+](=O)[O-] [IRAK-1-4 Inhibitor I]
Method in brief: as §1

[10] = compound: C=CC(=O)N1CCC[C@@H](n2nc(-c3ccc(Oc4ccccc4)cc3)c3c(N)ncnc32)C1 [ibrutinib]
Method in brief: as §1

[11] = compound: CC(=O)c1cnc2ccc(-c3cc(Cl)c(O)c(Cl)c3)nc2c1N[C@H]1CC[C@H](CN(C)C)CC1
Method in brief: as §1

[12] = compound: CC(C)(C)Cn1c(N)nc2ccc(-c3[nH]c(C(C)(C)C)nc3-c3ccc(F)cc3)nc21 [ralimetinib]
Method in brief: as §1

[13] = compound: CC(C)(O)CC(=O)NCCn1ccc2ncnc(Nc3ccc(Oc4cccc(C(F)(F)F)c4)c(Cl)c3)c21
Method in brief: as §1

[14] = compound: CC(C)C[C@@H](C=O)NC(=O)[C@H](CC(C)C)NC(=O)[C@H](CC(C)C)NC(=O)OCc1ccccc1
Method in brief: as §1

[15] = compound: CC(C)N(C[C@H]1O[C@@H](n2cnc3c(N)ncnc32)[C@H](O)[C@@H]1O)[C@H]1C[C@@H](CCc2nc3cc(C(C)(C)C)ccc3[nH]2)C1 [pinometostat]
Method in brief: as §1

[16] = compound: CC1=C(C(CC(=O)N1)C2=CC=C(C=C2)C(F)(F)F)C(=O)NC3=C(C=C4C(=C3)C=NN4)F
Method in brief: as §1

[17] = compound: CC1=C(C2=C(C=C1)C(=O)C3=CC=CC=C3N2CCCN)C
Method in brief: as §1

[18] = compound: C#Cc1cccc(Nc2ncnc3cc(OCCOC)c(OCCOC)cc23)c1 [erlotinib]
Method in brief: as §1

[19] = compound: C1=CC(=CC=C1C2=NC3=C(N2)C=C(C=C3)C(=O)N)OC4=CC=C(C=C4)Cl
Method in brief: as §1

[20] = compound: CC(C)C1=C2N=C(C=C(N2N=C1)NCC3=CC=CC=C3)NCCCCCCN
Method in brief: as §1

Measured: log2 fold change

CHPF (UniProt Q8IZ52)
inactive: [1] -0.509 | [2] -0.128 | [3] -0.182 | [4] -0.001 | [5] 0.083 | [6] 0.384 | [7] 0.275 | [8] 0.315 | [9] 0.125 | [10] -0.05 | [11] -0.012 | [12] 0.107 | [13] 0.296 | [14] 0.132 | [15] -0.206 | [16] -0.143 | [17] -0.189

CHSY1 (UniProt Q86X52)
inactive: [2] -0.161 | [13] -0.155

COG1 (UniProt Q8WTW3)
inactive: [5] -0.2 | [7] -0.493 | [8] -0.516 | [9] -0.04 | [12] 0.018 | [14] 0.103 | [15] 0.179 | [17] -0.079

COL12A1 (UniProt Q99715)
inactive: [2] 0.019 | [5] 0.276 | [7] 0.01 | [8] 0.143 | [12] -0.082 | [13] -0.09 | [14] 0.144 | [17] -0.037

Taken from the results shown (2 entries):
CHSY1 (UniProt Q86X52)
inactive: [2] -0.161 | [13] -0.155

COG1 (UniProt Q8WTW3)
inactive: [5] -0.2 | [7] -0.493 | [8] -0.516 | [9] -0.04 | [12] 0.018 | [14] 0.103 | [15] 0.179 | [17] -0.079

The list continues.

COL14A1 (UniProt Q05707)
inactive: [2] -0.018 | [7] -0.036 | [8] -0.116 | [9] -0.036 | [13] 0.136 | [15] -0.254 | [16] 0.033 | [17] -0.158

CLSTN3 isoform 2 (UniProt Q9BQT9)
inactive: [1] -0.061 | [2] -0.088 | [3] 0.005 | [6] -0.021 | [11] -0.074 | [13] 0.103

CHTOP isoform 3 (UniProt Q9Y3Y2)
inactive: [18] -0.245 | [2] -0.232 | [19] -0.016 | [7] -0.241 | [8] -0.246 | [9] 0.107 | [13] 0.168 | [20] 0.329 | [15] 0.125 | [17] -1.09

CLINT1 (UniProt Q14677)
inactive: [1] -0.106 | [2] -0.12 | [3] -0.176 | [4] 0.035 | [6] 0.031 | [7] -0.097 | [8] -0.057 | [11] 0.059 | [13] 0.221 | [15] 0.058 | [17] -0.114

CMTM4 (UniProt Q8IZR5)
inactive: [1] 0.147 | [2] 0.28 | [3] 0.115 | [4] -0.195 | [6] -0.202 | [7] 0.024 | [8] 0.125 | [10] -0.05 | [11] -0.031 | [13] 0.041 | [16] 0 | [17] 0.128

CLIC6 (UniProt Q96NY7)
inactive: [2] 0.086 | [4] 0.007 | [5] -0.028 | [7] -0.013 | [8] -0.001 | [9] -0.08 | [12] -0.078 | [13] -0.098 | [14] -0.021 | [15] -0.041 | [16] 0.181 | [17] 0.028

CMIP (UniProt Q8IY22)
inactive: [2] -0.394 | [4] 0.012 | [5] -0.09 | [10] 0.132 | [12] 0.069 | [13] 0.032 | [14] -0.068

COG8 (UniProt Q96MW5)
inactive: [2] -0.283 | [9] -0.196 | [13] -0.407 | [15] 0.094

CLDN6 (UniProt P56747)
inactive: [18] -0.057 | [19] -0.09 | [20] 0.226

CLEC11A (UniProt Q9Y240)
inactive: [18] -0.029 | [19] -0.067 | [7] 0.007 | [8] 0.016 | [20] 0.086 | [17] -0.26

CIRBP (UniProt Q14011)
inactive: [1] -0.138 | [2] -0.561 | [3] -0.089 | [4] 0.086 | [6] 0.048 | [7] 0.056 | [8] 0.181 | [10] 0.151 | [11] 0.091 | [13] 0.052 | [16] 0.032 | [17] -0.207

CNN1 (UniProt P51911)
inactive: [1] 0.062 | [2] 0.055 | [3] 0.063 | [6] 0.041 | [7] -0.129 | [8] 0.118 | [11] -0.086 | [13] -0.071 | [17] 0.145

COG5 isoform 2 (UniProt Q9UP83)
inactive: [18] -0.079 | [19] 0.014 | [5] 0.023 | [9] -0.162 | [12] 0.324 | [20] 0.089 | [14] 0.099 | [15] 0.427

CHUK (UniProt O15111)
inactive: [1] -0.096 | [2] -0.505 | [3] -0.022 | [5] -0.018 | [6] 0.162 | [7] -0.285 | [8] -0.28 | [11] 0.289 | [12] 0.138 | [13] 0.002 | [14] 0.136 | [17] -0.126

CLP1 (UniProt Q92989)
inactive: [18] 0.069 | [19] -0.029 | [4] -0.013 | [7] -0.25 | [8] -0.059 | [20] -0.056 | [17] 0.195

CMYA5 (UniProt Q8N3K9)
inactive: [4] -0.048 | [5] 0.008 | [7] 0.267 | [8] 0.023 | [10] -0.014 | [12] 0.01 | [14] -0.011 | [16] 0.158 | [17] 0.264

CNTRL (UniProt Q7Z7A1)
inactive: [1] -0.068 | [3] 0 | [5] 0.056 | [6] 0.043 | [7] 0.016 | [8] -0.12 | [11] 0.119 | [12] -0.043 | [14] 0.021 | [16] -0.06 | [17] -0.082

CIP2A (UniProt Q8TCG1)
inactive: [2] -0.411 | [13] 0.044

CLPTM1L (UniProt G5E9Z2)
inactive: [1] 0.109 | [2] 0.492 | [3] -0.139 | [4] 0.284 | [6] 0.174 | [7] 0.145 | [8] 0.272 | [11] -0.03 | [13] -0.556 | [17] -0.201

CLN6 (UniProt Q9NWW5)
inactive: [1] 0.047 | [2] 0.019 | [3] 0.204 | [4] -0.084 | [5] 0.117 | [6] -0.199 | [7] 0.12 | [8] -0.035 | [11] -0.024 | [12] -0.045 | [13] -0.051 | [14] 0.025 | [16] -0.18 | [17] 0.093
